# From patent US20220074941A1, “HSP90 COMBINATION THERAPY” (Sloan-Kettering Institute for Cancer Research, priority 2011, published 2022)
# Test system: Hsp90 complexes in K562 cell extract
# Experiment: Nano-LC-MS/MS of PU-beads pull-downs
# Format: binding
# Settings: for Matched Peptides by Fraction JA05: Run1, gel size cut 60-80; for Matched Peptides by Fraction JA12: Run2, gel size cut 60-80; for MAXIMUM matched peptides: maximum over fractions JA01-JA14; for Total fmol: protein isolated in PU-beads pull-downs, Waters Xevo QTof MS; for Matched Peptides by Fraction JA06: Run1, gel size cut 40-60; for Matched Peptides by Fraction JA07: Run1, gel size cut <40; for Matched Peptides by Fraction JA14: Run2, gel size cut <40
# How it was run: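 Lysates pre-cleared overnight at 4 °C with control beads, then pulled down with PU-beads or control beads; eluted proteins (2% SDS boil) gel-separated and analysed by nano LC-MS/MS on a QTof. Mascot identification (p<0.05), spectral counts and sequence coverage evaluated in Scaffold.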
Molecule,Matched Peptides by Fraction JA05 (PU-beads pull-down),Matched Peptides by Fraction JA12 (PU-beads pull-down),MAXIMUM matched peptides (PU-beads pull-down),Total fmol,Matched Peptides by Fraction JA06 (PU-beads pull-down),"Matched Peptides by Fraction JA13 (PU-beads pull-down, Run2, gel size cut 40-60)",Matched Peptides by Fraction JA07 (PU-beads pull-down),Matched Peptides by Fraction JA14 (PU-beads pull-down),"Matched Peptides by Fraction JA04 (PU-beads pull-down, Run1, gel size cut 80-110)"
"Heat shock protein 75 kDa, mitochondrial, TRAP1 (protein, UniProt Q12931 60-704, looked up) Heat shock protein 75 kDa, …: STQTAEDKEEPLHSIISSTESVQGSTSKHEFQAETKKLLDIVARSLYSEKEVFIRELISNASDALEKLRHKLVSDGQALPEMEIHLQTNAEKGTITIQDTGIGMTQEELVSNLGTIARSGSKAFLDALQNQAEASSKIIGQFGVGFYSAFMVADRVEVYSRSAAPGSLGYQWLSDGSGVFEIAEASGVRTGTKIIIHLKSDCKEFSSEARVRDVVTKYSNFVSFPLYLNGRRMNTLQAIWMMDPKDVREWQHEEFYRYVAQAHDKPRYTLHYKTDAPLNIRSIFYVPDMKPSMFDVSRELGSSVALYSRKVLIQTKATDILPKWLRFIRGVVDSEDIPLNLSRELLQESALIRKLRDVLQQRLIKFFIDQSKKDAEKYAKFFEDYGLFMREGIVTATEQEVKEDIAKLLRYESSALPSGQLTSLSEYASRMRAGTRNIYYLCAPNRHLAEHSPYYEAMKKKDTEVLFCFEQFDELTLLHLREFDKKKLISVETDIVVDHYKEEKFEDRSPAAECLSEKETEELMAWMRNVLGSRVTNVKVTLRLDTHPAMVTVLEMGAARHFLRMQQLAKTQEERAQLLQPTLEINPRHALIKKLNQLRASEPGLAQLLVDQIYENAMIAAGLVDDPRAMVGRLNELLVKALERH",80,90,90,209.2569 fmol,,,,,
"Hsc70-interacting protein; HIP (protein, UniProt P50502 1-369, looked up) Hsc70-interacting protein: MDPRKVNELRAFVKMCKQDPSVLHTEEMRFLREWVESMGGKVPPATQKAKSEENTKEEKPDSKKVEEDLKADEPSSEESDLEIDKEGVIEPDTDAPQEMGDENAEITEEMMDQANDKKVAAIEALNDGELQKAIDLFTDAIKLNPRLAILYAKRASVFVKLQKPNAAIRDCDRAIEINPDSAQPYKWRGKAHRLLGHWEEAAHDLALACKLDYDEDASAMLKEVQPRAQKIAEHRRKYERKREEREIKERIERVKKAREEHERAQREEEARRQSGAQYGSFPGGFPGGMPGNFPGGMPGMGGGMPGMAGMPGLNEILSDPEVLAAMQDPEVMVAFQDVAQNPANMSKYQSNPKVMNLISKLSAKFGGQA",,,23,96.9194 fmol,23,19,,,
"Protein CREG1 (protein, UniProt O75629 32-220, looked up) Protein CREG1: RGGRDHGDWDEASRLPPLPPREDAARVARFVTHVSDWGALATISTLEAVRGRPFADVLSLSDGPPGAGSGVPYFYLSPLQLSVSNLQENPYATLTMTLAQTNFCKKHGFDPQSPLCVHIMLSGTVTKVNETEMDIAKHSLFIRHPEMKTWPSSHNWFFAKLNITNIWVLDYFGGPKIVTPEEYYNVTVQ",,,3,8.0371 fmol,,,2,3,
"Tyrosine-protein kinase BTK (protein, UniProt Q06187 2-659, looked up) Tyrosine-protein kinase BTK: AAVILESIFLKRSQQKKKTSPLNFKKRLFLLTVHKLSYYEYDFERGRRGSKKGSIDVEKITCVETVVPEKNPPPERQIPRRGEESSEMEQISIIERFPYPFQVVYDEGPLYVFSPTEELRKRWIHQLKNVIRYNSDLVQKYHPCFWIDGQYLCCSQTAKNAMGCQILENRNGSLKPGSSHRKTKKPLPPTPEEDQILKKPLPPEPAAAPVSTSELKKVVALYDYMPMNANDLQLRKGDEYFILEESNLPWWRARDKNGQEGYIPSNYVTEAEDSIEMYEWYSKHMTRSQAEQLLKQEGKEGGFIVRDSSKAGKYTVSVFAKSTGDPQGVIRHYVVCSTPQSQYYLAEKHLFSTIPELINYHQHNSAGLISRLKYPVSQQNKNAPSTAGLGYGSWEIDPKDLTFLKELGTGQFGVVKYGKWRGQYDVAIKMIKEGSMSEDEFIEEAKVMMNLSHEKLVQLYGVCTKQRPIFIITEYMANGCLLNYLREMRHRFQTQQLLEMCKDVCEAMEYLESKQFLHRDLAARNCLVNDQGVVKVSDFGLSRYVLDDEYTSSVGSKFPVRWSPPEVLMYSKFSSKSDIWAFGVLMWEIYSLGKMPYERFTNSETAEHIAQGLRLYRPHLASEKVYTIMYSCWHEKADERPTFKILLSNILDVMDEES",11,14,14,10.8031 fmol,,,,,
"Ras suppressor protein 1 (protein, UniProt Q15404 2-277, looked up) Ras suppressor protein 1: SKSLKKLVEESREKNQPEVDMSDRGISNMLDVNGLFTLSHITQLVLSHNKLTMVPPNIAELKNLEVLNFFNNQIEELPTQISSLQKLKHLNLGMNRLNTLPRGFGSLPALEVLDLTYNNLSENSLPGNFFYLTTLRALYLSDNDFEILPPDIGKLTKLQILSLRDNDLISLPKEIGELTQLKELHIQGNRLTVLPPELGNLDLTGQKQVFKAENNPWVTPIADQFQLGVSHVFEYIRSETYKYLYGRHMQANPEPPKKNNDKSKKISRKPLAAKNR",,,5,3.2914 fmol,,,5,4,
"Serine/threonine-protein kinase RIO2 (protein, UniProt Q9BVS4 1-552, looked up) Serine/threonine-protein …: MGKVNVAKLRYMSRDDFRVLTAVEMGMKNHEIVPGSLIASIASLKHGGCNKVLRELVKHKLIAWERTKTVQGYRLTNAGYDYLALKTLSSRQVVESVGNQMGVGKESDIYIVANEEGQQFALKLHRLGRTSFRNLKNKRDYHKHRHNVSWLYLSRLSAMKEFAYMKALYERKFPVPKPIDYNRHAVVMELINGYPLCQIHHVEDPASVYDEAMELIVKLANHGLIHGDFNEFNLILDESDHITMIDFPQMVSTSHPNAEWYFDRDVKCIKDFFMKRFSYESELFPTFKDIRREDTLDVEVSASGYTKEMQADDELLHPLGPDDKNIETKEGSEFSFSDGEVAEKAEVYGSENESERNCLEESEGCYCRSSGDPEQIKEDSLSEESADARSFEMTEFNQALEEIKGQVVENNSVTEFSEEKNRTENYNRQDGQRVQGGVPAGSDEYEDECPHLIALSSLNREFRPFRDEENVGAMNQYRTRTLSITSSGSAVSCSTIPPELVKQKVKRQLTKQQKSAVRRRLQKGEANIFTKQRRENMQNIKSSLEAASFWGE",,,6,3.6676 fmol,,,,,6
"Calpain-1 catalytic subunit; CAPN1 (protein, UniProt P07384 2-714, looked up) Calpain-1 catalytic subunit: SEEIITPVYCTGVSAQVQKQRARELGLGRHENAIKYLGQDYEQLRVRCLQSGTLFRDEAFPPVPQSLGYKDLGPNSSKTYGIKWKRPTELLSNPQFIVDGATRTDICQGALGDCWLLAAIASLTLNDTLLHRVVPHGQSFQNGYAGIFHFQLWQFGEWVDVVVDDLLPIKDGKLVFVHSAEGNEFWSALLEKAYAKVNGSYEALSGGSTSEGFEDFTGGVTEWYELRKAPSDLYQIILKALERGSLLGCSIDISSVLDMEAITFKKLVKGHAYSVTGAKQVNYRGQVVSLIRMRNPWGEVEWTGAWSDSSSEWNNVDPYERDQLRVKMEDGEFWMSFRDFMREFTRLEICNLTPDALKSRTIRKWNTTLYEGTWRRGSTAGGCRNYPATFWVNPQFKIRLDETDDPDDYGDRESGCSFVLALMQKHRRRERRFGRDMETIGFAVYEVPPELVGQPAVHLKRDFFLANASRARSEQFINLREVSTRFRLPPGEYVVVPSTFEPNKEGDFVLRFFSEKSAGTVELDDQIQANLPDEQVLSEEEIDENFKALFRQLAGEDMEISVKELRTILNRIISKHKDLRTKGFSLESCRSMVNLMDRDGNGKLGLVEFNILWNRIRNYLSIFRKFDLDKSGSMSAYEMRMAIESAGFKLNKKLYELIITRYSEPDLAVDFDNFVCCLVRLETMFRFFKTLDTDLDGVVTFDLFKWLQLTMFA",22,27,27,18.7642 fmol,,,,,
"Integrin-linked protein kinase; ILK (protein, UniProt Q13418 1-452, looked up) Scaffold protein ILK: MDDIFTQCREGNAVAVRLWLDNTENDLNQGDDHGFSPLHWACREGRSAVVEMLIMRGARINVMNRGDDTPLHLAASHGHRDIVQKLLQYKADINAVNEHGNVPLHYACFWGQDQVAEDLVANGALVSICNKYGEMPVDKAKAPLRELLRERAEKMGQNLNRIPYKDTFWKGTTRTRPRNGTLNKHSGIDFKQLNFLTKLNENHSGELWKGRWQGNDIVVKVLKVRDWSTRKSRDFNEECPRLRIFSHPNVLPVLGACQSPPAPHPTLITHWMPYGSLYNVLHEGTNFVVDQSQAVKFALDMARGMAFLHTLEPLIPRHALNSRSVMIDEDMTARISMADVKFSFQCPGRMYAPAWVAPEALQKKPEDTNRRSADMWSFAVLLWELVTREVPFADLSNMEIGMKVALEGLRPTIPPGISPHVCKLMKICMNEDPAKRPKFDMIVPILEKMQDK",,,4,1.6140 fmol,4,,,,
"Phosducin-like protein 3 (protein, UniProt Q9H2J4 1-239, looked up) Phosducin-like protein 3: MQDPNADTEWNDILRKKGILPPKESLKELEEEAEEEQRILQQSVVKTYEDMTLEELEDHEDEFNEEDERAIEMYRRRRLAEWKATKLKNKFGEVLEISGKDYVQEVTKAGEGLWVILHLYKQGIPLCALINQHLSGLARKFPDVKFIKAISTTCIPNYPDRNLPTIFVYLEGDIKAQFIGPLVFGGMNLTRDELEWKLSESGAIMTDLEENPKKPIEDVLLSSVRRSVLMKRDSDSEGD",,,5,4.3938 fmol,,,4,5,
